{
  "source": "patent US11453640B2",
  "about": "“Small molecules for disrupting the super elongation complex and inhibiting transcription elongation for cancer therapy” (NORTHWESTERN UNIVERSITY, priority 2018, dated 2022)",
  "assay_type_in_all_cases": "cell-based, human",
  "key": {"Pol II": {"tested_on": "Pol II", "assay": "Pol II ChIP-seq, promoter-proximal pausing in HEK293T cells", "protocol": "FIG. 2. Small molecule disruption of SEC increases promoter-proximal pausing. (A) SEC inhibitors increase Pol II occupancy near the transcription start sites (TSS) of the HSPA8 and SRSF4 genes. Pol II ChIP-seq was performed in HEK293T cells with 20 μM SEC inhibitors KL-1 and KL-2 for 6 hr. […] (B) Heatmap analysis of Pol II occupancy at SEC-occupied genes in cells treated with KL-1 and KL-2. SEC inhibition results in increased Pol II occupancy at promoter-proximal regions of genes occupied by SEC. Rows are sorted by Pol II occupancy in the DMSO condition and metaplots of Pol II occupancy are shown at the bottom. Corresponding AFF1 and AFF4 occupancy (rpm) in the vehicle-treated condition is shown. […] The pausing index is calculated based on the ratio of Pol II occupancy around the TSS to Pol II occupancy in the gene body. […]\nChromatin Immunoprecipitation Sequencing. […] ChIP-seq reads were aligned to the Drosophila genome (UCSC dm3) or human genome (UCSC hgl9). Alignments were processed with Bowtie version 1.1.2, allowing only uniquely mapping reads with up to two mismatches within the 50 bp read. The resulting reads were extended to 150 bp toward the interior of the sequenced fragment and normalized to total reads aligned (reads per million, r.p.m.). […] P-values were calculated with a two-sided Kolmogorov-Smirnov test. […]"}, "MYC": {"tested_on": "MYC", "assay": "mRNA-seq of 293T cells after 24 hr treatment", "source_text": "(§1) FIG. 6. SEC disruption targets MYC and MYC target genes. (A-B) Venn diagram of deregulated genes in 293T cells by KL-1 and KL-2. […] (C) Heat map showing the expression changes in response to SEC inhibitors, with differentially expressed canonical MYC targets, RNA splicing factors, and core SNRP assembly genes highlighted. […] Each cluster is represented by different colors and a circle node denotes each enriched term. (E) MA plots of RNA splicing and Hallmark MYC target genes in KL-2 treated, AFF1 and AFF4 co-depletion, and ELL2-depleted cells. […] The MYC genes, the PRMT5 gene, and genes encoding SEC components are denoted as red squares. (F) Western analysis of MYC protein levels in the MYC lowly expressed small cell lung cancer cell line […] and MYC-amplified small cell lung cancer cell line H2171. […] The SEC and MYC peaks were determined by MACS with a p-value cutoff at 1E-5. […] Both cell lines were treated with increasing concentrations of KL-1 and KL-2 for 3 days and the cell proliferation was measured with CellTiter-Glo luminescent cell viability assay (Promega) (n=3-6).\nRNA-seq Analysis. […] Exonic reads were assigned to specific genes from Ensembl release 75 using Bioconductor package GenomicRanges countOverlaps. […] The total number of uniquely mapped reads was provided to edgeR for the calcNormFactors normalization rather than the default column sums. […]"}, "H2171 and SW1271 cells": {"tested_on": "H2171 and SW1271 cells", "assay": "CellTiter-Glo cell proliferation of small cell lung cancer cells", "settings": "3 days, increasing concentrations", "source_text": "as §1, with “H2171. (G) Gained SEC occupancy at the MYC binding sites in MYC highly expressed H2171 cells. Genome browser tracks of MYC and SEC occupancy around the PRMT5 gene in SW1271 and H2171 cells are shown. (H) ChIP-seq analysis of MYC binding peaks in SW1271 and H2171 cells.” for “H2171.”"}},
  "note": "For at least one compound, name, drawing or mass did not settle the structure.",
  "data": [
    {"smiles": "Cc1ccc(Cl)cc1NC(=O)C(=O)CC(=O)c1ccc(F)cc1", "note": "[KL-2, N-(5-chloro-2-methylphenyl)-4-oxo-(4-fluorophenyl)-2-oxobutanamide]", "values": [
      {"measurement": "promoter-proximal pausing (pausing index, ECDF)", "setting": "Pol II", "result": "could increase promoter-proximal pausing"},
      {"measurement": "Pol II occupancy at promoter-proximal regions", "setting": "Pol II; 20 μM, 6 hr, HSPA8 and SRSF4 loci", "result": "increased Pol II occupancy at the promoter-proximal regions"},
      {"measurement": "MYC expression", "setting": "MYC", "result": "led to decreased MYC expression"},
      {"measurement": "sensitivity of high MYC expressing H2171 cells versus low MYC expressing SW1271 cells", "setting": "H2171 and SW1271 cells", "result": "more sensitive"}
    ]}
  ]
}
